± gives the standard deviation of the averaged measurements. The effect of the compound repeats well; differences between the knockouts mostly do not.
System: HCC-38
Assay: relative cell number vs DMSO control (72 h) (% of DMSO); higher = less growth inhibition (more cells)
Method: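 QMAP-Seq: a pool of 5 breast cancer cell lines (ZR-75-1, SKBR3, HCC-38, MDA-MB-231, BT-20), each carrying 12 doxycycline-inducible Cas9 sgRNA perturbations (11 knockouts plus non-targeting sgNT), was treated with compounds for 72 h at four 10-fold doses (10 nM-10 uM or 1 nM-1 uM range). Barcodes were amplified and sequenced, and cell number was interpolated from 293T spike-in standard curves. The result is expressed as % of the median of DMSO wells. Two biological replicates.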

C[C@]1(O)C[C@@H](c2nc(-c3ccc4ccc(-c5ccccc5)nc4c3)c3c(N)nccn32)C1 [Linsitinib]
Conditions	relative cell number
sgRNA knockout: sgATF3, 10 nM	106 ± 4.7
sgRNA knockout: sgATF3, 100 nM	102 ± 9.5
sgRNA knockout: sgATF3, 1000 nM	82.7 ± 3.3
sgRNA knockout: sgATF3, 10000 nM	78.46 ± 0.29
sgRNA knockout: sgATF4, 10 nM	109.55 ± 0.09
sgRNA knockout: sgATF4, 100 nM	98.5 ± 5.6
sgRNA knockout: sgATF4, 1000 nM	79.2 ± 7
sgRNA knockout: sgATF4, 10000 nM	76.1 ± 9.9
sgRNA knockout: sgATF6, 10 nM	106 ± 8.4
sgRNA knockout: sgATF6, 100 nM	111 ± 15
sgRNA knockout: sgATF6, 1000 nM	94.9 ± 11
sgRNA knockout: sgATF6, 10000 nM	94.4 ± 12
sgRNA knockout: sgATG7, 10 nM	106 ± 10
sgRNA knockout: sgATG7, 100 nM	102 ± 10
sgRNA knockout: sgATG7, 1000 nM	85.2 ± 10
sgRNA knockout: sgATG7, 10000 nM	78.4 ± 10
sgRNA knockout: sgERN1, 10 nM	94.5 ± 2.5
sgRNA knockout: sgERN1, 100 nM	108 ± 20
sgRNA knockout: sgERN1, 1000 nM	95.8 ± 12
sgRNA knockout: sgERN1, 10000 nM	85.9 ± 5.9
sgRNA knockout: sgHSF1, 10 nM	127 ± 1.8
sgRNA knockout: sgHSF1, 100 nM	112 ± 34
sgRNA knockout: sgHSF1, 1000 nM	100 ± 12
sgRNA knockout: sgHSF1, 10000 nM	85.9 ± 8
sgRNA knockout: sgHSF2, 10 nM	103 ± 8.1
sgRNA knockout: sgHSF2, 100 nM	111.6 ± 0.38
sgRNA knockout: sgHSF2, 1000 nM	92.5 ± 11
sgRNA knockout: sgHSF2, 10000 nM	79.4 ± 22
sgRNA knockout: sgKEAP1, 10 nM	117 ± 5.4
sgRNA knockout: sgKEAP1, 100 nM	118 ± 15
sgRNA knockout: sgKEAP1, 1000 nM	85.4 ± 9.7
sgRNA knockout: sgKEAP1, 10000 nM	87.6 ± 13
sgRNA knockout: sgNFE2L2, 10 nM	106 ± 5.3
sgRNA knockout: sgNFE2L2, 100 nM	95.6 ± 6.3
sgRNA knockout: sgNFE2L2, 1000 nM	76.8 ± 9.6
sgRNA knockout: sgNFE2L2, 10000 nM	72.1 ± 13
sgRNA knockout: sgSLC35F2, 10 nM	102 ± 3.8
sgRNA knockout: sgSLC35F2, 100 nM	112.7 ± 0.75
sgRNA knockout: sgSLC35F2, 1000 nM	93.1 ± 9.8
sgRNA knockout: sgSLC35F2, 10000 nM	82.3 ± 10
sgRNA knockout: sgXBP1, 10 nM	108 ± 3.8
sgRNA knockout: sgXBP1, 100 nM	98.1 ± 8.5
sgRNA knockout: sgXBP1, 1000 nM	78.8 ± 17
sgRNA knockout: sgXBP1, 10000 nM	76.7 ± 7.7

Cc1cnc(-c2cnc(NCCNc3ccc(C#N)cn3)nc2-c2ccc(Cl)cc2Cl)[nH]1
Conditions	relative cell number
sgRNA knockout: sgATF3, 10 nM	96.1 ± 16
sgRNA knockout: sgATF3, 100 nM	92.1 ± 4.5
sgRNA knockout: sgATF3, 1000 nM	120.9 ± 1
sgRNA knockout: sgATF3, 10000 nM	129 ± 2
sgRNA knockout: sgATF4, 10 nM	90.7 ± 13
sgRNA knockout: sgATF4, 100 nM	82.44 ± 0.069
sgRNA knockout: sgATF4, 1000 nM	113 ± 11
sgRNA knockout: sgATF4, 10000 nM	127 ± 8.9
sgRNA knockout: sgATF6, 10 nM	106 ± 20
sgRNA knockout: sgATF6, 100 nM	107 ± 14
sgRNA knockout: sgATF6, 1000 nM	118 ± 12
sgRNA knockout: sgATF6, 10000 nM	146 ± 11
sgRNA knockout: sgATG7, 10 nM	96.2 ± 14
sgRNA knockout: sgATG7, 100 nM	94.2 ± 4.7
sgRNA knockout: sgATG7, 1000 nM	105 ± 3.7
sgRNA knockout: sgATG7, 10000 nM	125.5 ± 0.68
sgRNA knockout: sgERN1, 10 nM	94.8 ± 11
sgRNA knockout: sgERN1, 100 nM	102 ± 8.6
sgRNA knockout: sgERN1, 1000 nM	97.5 ± 11
sgRNA knockout: sgERN1, 10000 nM	136 ± 12
sgRNA knockout: sgHSF1, 10 nM	95.1 ± 8.8
sgRNA knockout: sgHSF1, 100 nM	110.3 ± 1.1
sgRNA knockout: sgHSF1, 1000 nM	94.7 ± 8.4
sgRNA knockout: sgHSF1, 10000 nM	112 ± 1.2
sgRNA knockout: sgHSF2, 10 nM	95.4 ± 7.5
sgRNA knockout: sgHSF2, 100 nM	97.6 ± 2.9
sgRNA knockout: sgHSF2, 1000 nM	102 ± 8.6
sgRNA knockout: sgHSF2, 10000 nM	123 ± 4.6
sgRNA knockout: sgKEAP1, 10 nM	94.7 ± 6.2
sgRNA knockout: sgKEAP1, 100 nM	100.41 ± 0.017
sgRNA knockout: sgKEAP1, 1000 nM	98.64 ± 0.96
sgRNA knockout: sgKEAP1, 10000 nM	124 ± 8.8
sgRNA knockout: sgNFE2L2, 10 nM	94.1 ± 27
sgRNA knockout: sgNFE2L2, 100 nM	87.4 ± 2.7
sgRNA knockout: sgNFE2L2, 1000 nM	116.2 ± 0.96
sgRNA knockout: sgNFE2L2, 10000 nM	134 ± 12
sgRNA knockout: sgSLC35F2, 10 nM	91.8 ± 16
sgRNA knockout: sgSLC35F2, 100 nM	95 ± 8.7
sgRNA knockout: sgSLC35F2, 1000 nM	98.3 ± 3.7
sgRNA knockout: sgSLC35F2, 10000 nM	119 ± 3.9
sgRNA knockout: sgXBP1, 10 nM	92.9 ± 18
sgRNA knockout: sgXBP1, 100 nM	94.18 ± 0.89
sgRNA knockout: sgXBP1, 1000 nM	113 ± 10
sgRNA knockout: sgXBP1, 10000 nM	129.4 ± 0.16

Source: the supplement of paper PMC7661543
